{"source": "the supplement of paper PMC11150407", "note": "Counter-ions that a name gives are not always drawn. The whole screen tested about 2,100 compounds, of which about 180 (8.6%) showed an effect of 50% or more. The list shows a part of the results."}
{"test_system": "MOLM1 and UCSD/AML1 (averaged)", "experiment": "cell viability relative to DMSO control (POC); higher = less growth inhibition", "conditions": "1 µM; 72 h", "experimental": "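Primary viability screen in the 3q26 EVI1-high AML cell lines MOLM1 and UCSD/AML1 (1.5e3 cells/well, 384-well), compounds at 1 uM for 72 h. ATP CellTiter-Glo read-out given as percent of viable cells over DMSO control (POC), averaged over duplicates. DMSO was the negative control and 5 uM etoposide the positive control. This mapping covers the MicroSource Spectrum and Selleck anticancer libraries (drug names).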", "units": {"cell viability": "%"}}
{"compound": "O=C(/C=C/c1cccc(S(=O)(=O)Nc2ccccc2)c1)NO", "note": "[Belinostat (PXD101)]", "cell viability": 1.86}
{"compound": "CC(C)(CO)[C@@H](O)C(=O)NCCC(=O)O", "note": "[PANTOTHENIC ACID(d) Na salt]", "cell viability": 111}
{"compound": "Cc1cc(C(C)(C)C)cc(C)c1CC1=NCCN1", "cell viability": 92.2}
{"compound": "CCN(CCCCOC(=O)c1ccc(OC)c(OC)c1)C(C)Cc1ccc(OC)cc1", "note": "(stereo not given)", "cell viability": 95.1}
{"compound": "CCN(CC)CCOCCOC(=O)C1(c2ccccc2)CCCC1", "cell viability": 102}
{"compound": "CC(=O)O[C@@H]1CC(=O)[C@@]2(C)C(CC(=O)[C@]3(C)C2CC[C@@]2(C)[C@H](c4ccoc4)OC(=O)C4OC423)C1(C)C", "note": "(stereo not given in full)", "cell viability": 100}
{"compound": "CCOC(=O)c1c(C)cc(OC)cc1O", "cell viability": 95.3}
{"compound": "COc1ccc2c3n(c(=NC(=O)c4cccnc4)nc2c1OC)CCN3", "cell viability": 64.3}
{"compound": "CNC(=O)c1ccc(N2C(=S)N(c3ccc(C#N)c(C(F)(F)F)c3)C(=O)C2(C)C)cc1F", "note": "[MDV3100 (Enzalutamide)]", "cell viability": 102}
{"compound": "CCCCC1C(=O)N(c2ccccc2)N(c2ccc(O)cc2)C1=O", "note": "(stereo not given)", "cell viability": 97.9}
{"compound": "COC(=O)C[C@H]1C2(C)CC34OC5(C)O[C@@]6([C@H](OC(C)=O)C(OC(C)=O)[C@]7(C)C(/C(=C(/O)C(C)C)C(=O)O[C@H]7c7ccoc7)[C@@]6(O5)[C@H](OC(C)=O)[C@@]3(O)C2OC(=O)C(C)C)[C@]14C", "note": "(stereo not given in full)", "cell viability": 102}
{"compound": "O=C(O)c1cc(=O)c(O)c2c(O)c(O)c(O)cc2c1", "cell viability": 115}
{"compound": "CC(=O)Nc1ccc(OC(=O)c2ccccc2O)cc1", "cell viability": 97.8}
{"compound": "COc1cc2nc(N3CCN(C(=O)C4COc5ccccc5O4)CC3)nc(N)c2cc1OC", "note": "(stereo not given)", "cell viability": 51}
{"compound": "O=C(O)C1=C(CSc2nnnn2CS(=O)(=O)O)CS[C@@H]2[C@H](NC(=O)[C@H](O)c3ccccc3)C(=O)N12", "cell viability": 105}
{"compound": "CC(C)CC(NC(=O)[C@H](C)N)C(=O)O", "note": "(mixture of isomers)", "cell viability": 105}
{"compound": "NC[C@H](O)c1ccc(O)c(O)c1", "cell viability": 97.4}
{"compound": "CCN(CC)CCNC(=O)c1ccc(N)cc1", "cell viability": 105}
{"compound": "O[C@H]1[C@H](O)[C@@H](O)C2OC[C@H]1O2", "cell viability": 110}
{"compound": "CCCCCCOc1ccccc1C(N)=O", "cell viability": 97.3}
{"compound": "OCCn1cc(-c2ccc3c(c2)CC/C3=N\\O)c(-c2ccncc2)n1", "cell viability": 89}
{"compound": "C[C@@H]1CCC[C@H](C)N1NC(=O)c1ccc(Cl)c(S(N)(=O)=O)c1", "cell viability": 79.6}
{"compound": "CCOC(=O)C(Cc1ccc(O)cc1)NC(C)=O", "note": "(stereo not given)", "cell viability": 105}
{"compound": "CN[C@H]1CC[C@@H](c2ccc(Cl)c(Cl)c2)c2ccccc21", "cell viability": 75.5}
{"compound": "Nc1ccc(S(=O)(=O)Nc2nccs2)cc1", "cell viability": 103}
{"compound": "COC(=O)C(O)c1ccccc1", "note": "(stereo not given)", "cell viability": 106}
{"compound": "Cc1ccc(-c2cc(C(F)(F)F)nn2-c2ccc(S(N)(=O)=O)cc2)cc1", "note": "[Celecoxib]", "cell viability": 58.1}
{"compound": "Cc1ccc(-c2cc(C(F)(F)F)nn2-c2ccc(S(N)(=O)=O)cc2)cc1", "cell viability": 95.5}
{"compound": "CC(C)[N+]1(C)[C@@H]2CC[C@H]1C[C@@H](OC(=O)C(CO)c1ccccc1)C2", "note": "(stereo not given in full)", "cell viability": 120}
{"compound": "COc1cc(CNC(=O)CCCC/C=C/C(C)C)ccc1O", "cell viability": 98}
{"compound": "COC(=O)c1c(OC)cc2c(c1C)Oc1c(Cl)c(O)c(Cl)c(C)c1C(=O)O2", "cell viability": 107}
{"compound": "C[C@]12CC[C@@H]3c4ccc(O)cc4C[C@@H](CCCCCCCCC[S+]([O-])CCCC(F)(F)C(F)(F)F)[C@H]3[C@@H]1CC[C@@H]2O", "note": "(stereo not given in full) [Fulvestrant (Faslodex)]", "cell viability": 102}
{"compound": "CO/N=C(\\C(=O)N[C@@H]1C(=O)N2C(C(=O)O)=C(COC(C)=O)CS[C@H]12)c1csc(N)n1", "cell viability": 100}
{"compound": "COC(=O)[C@H](Cc1ccccc1)NC(=O)[C@@H](N)CC(=O)O", "cell viability": 53.3}
{"compound": "COc1cc(O)c2c(=O)cc(C)oc2c1CC=C(C)C", "cell viability": 87.8}
{"compound": "OC[C@@H](O)[C@@H](O[C@@H]1O[C@H](CO)[C@@H](O)[C@H](O)[C@H]1O)[C@H](O)[C@@H](O)CO", "cell viability": 92.2}
{"compound": "C[N+](C)(C)CC(O)CC(=O)[O-]", "note": "(stereo not given)", "cell viability": 99.5}
{"compound": "CC(=O)O[C@]1(C)CC[C@@]23C[C@H]1C(C)(C)[C@@H]2CC[C@H]3C", "cell viability": 107}
{"compound": "CC(=O)Nc1c(I)cc(I)c(C(=O)O)c1I", "cell viability": 99.3}
{"compound": "Cc1cc2cc3c(C)cc(=O)oc3c(C)c2o1", "cell viability": 94.2}
{"compound": "CC(=O)Nc1nnc(S(N)(=O)=O)s1", "cell viability": 102}
{"compound": "COC1=CC(=O)C(O)=C/C1=C\\C=C\\c1ccccc1", "cell viability": 95}
{"compound": "Cc1cc(Nc2cc(N3CCN(C)CC3)nc(Sc3ccc(NC(=O)C4CC4)cc3)n2)n[nH]1", "note": "[VX-680 (MK-0457, Tozasertib)]", "cell viability": 22}
{"compound": "CC[C@@]1(O)C(=O)OCc2c1cc1n(c2=O)Cc2cc3c(CN(C)C)c(O)ccc3nc2-1", "note": "[Topotecan HCl]", "cell viability": 2.12}
{"compound": "Nc1nnc(-c2cccc(Cl)c2Cl)c(N)n1", "cell viability": 92.1}
{"compound": "O=C(O)/C=C(\\CC(=O)O)C(=O)O", "cell viability": 103}
{"compound": "Nc1nc(=O)[nH]cc1F", "cell viability": 94.1}
{"compound": "Cc1c(C)c2c(c(C)c1O)CCC(C)(CCCC(C)CCCC(C)CCCC(C)C)O2", "note": "(stereo not drawn) [alpha-TOCHOPHEROL]", "cell viability": 103}
{"compound": "CC(=O)O[C@]1(C(C)=O)CC[C@H]2[C@@H]3C=C(C)C4=CC(=O)CC[C@]4(C)[C@H]3CC[C@@]21C", "note": "[Megestrol Acetate]", "cell viability": 92.5}
{"compound": "CC(=O)O[C@]1(C(C)=O)CC[C@H]2[C@@H]3C=C(C)C4=CC(=O)CC[C@]4(C)[C@H]3CC[C@@]21C", "cell viability": 91.8}
{"compound": "NC[C@H]1O[C@H](O[C@H]2[C@H](O)[C@@H](O[C@H]3O[C@H](CO)[C@@H](O)[C@H](N)[C@H]3O)[C@H](N)C[C@@H]2N)[C@H](N)[C@@H](O)[C@@H]1O", "cell viability": 110}
{"compound": "OCC(O)C(O)C(O)CO", "note": "(stereo not given)", "cell viability": 105}
{"compound": "CC1CCC2(OC1)OC1CC3C4CCC5C[C@@H](O)CCC5(C)C4=CCC3(C)C1[C@@H]2C", "note": "(stereo partly drawn) [3beta-HYDROXYISOALLOSPIROST-9(11)-ENE]", "cell viability": 91.8}
{"compound": "Nc1ccccc1NC(=O)c1ccc(CNc2nccc(-c3cccnc3)n2)cc1", "note": "[Mocetinostat (MGCD0103)]", "cell viability": 4.85}
{"compound": "CN(C)CC(=O)OC[C@@H](O)[C@@H](O)[C@H](O)[C@@H](O)C(=O)O", "cell viability": 108}
{"compound": "CC(C)(C)NCC(O)COc1cccc2c1CC(O)C(O)C2", "note": "(stereo not given)", "cell viability": 104}
{"compound": "Cc1cc(O)cc(O)c1C(=O)O", "cell viability": 115}
{"compound": "CC1=C(C(=O)O)N2C(=O)[C@@H](NC(=O)[C@H](N)c3ccccc3)[C@H]2SC1", "cell viability": 118}
{"compound": "CC[C@H](C)C(=O)O[C@H]1C[C@H](O)C=C2C=C[C@H](C)[C@H](CC[C@@H](O)C[C@@H](O)CC(=O)O)[C@H]21", "cell viability": 95}
{"compound": "O=C1C(O)=C(O)C(=O)C(O)=C1O", "cell viability": 96.4}
{"compound": "COc1ccc2c(c1)c(CC(=O)OCC(=O)O)c(C)n2C(=O)c1ccc(Cl)cc1", "cell viability": 112}
{"compound": "Cc1c2oc3c(C)ccc(C(=O)N[C@@H]4C(=O)N[C@H](C(C)C)C(=O)N5CCC[C@H]5C(=O)N(C)CC(=O)N(C)[C@@H](C(C)C)C(=O)O[C@@H]4C)c3nc-2c(C(=O)N[C@@H]2C(=O)N[C@H](C(C)C)C(=O)N3CCC[C@H]3C(=O)N(C)CC(=O)N(C)[C@@H](C(C)C)C(=O)O[C@@H]2C)c(N)c1=O", "cell viability": 1.96}
{"compound": "COc1ccc2cc3[n+](cc2c1OC)CCc1cc2c(cc1-3)OCO2", "cell viability": 89.3}
{"compound": "CC(C)Cn1c(=O)n(C)c(=O)c2nc[nH]c21", "cell viability": 102}
{"compound": "COC(=O)C[C@H]1C(C)(C)C(=O)[C@@H]2CC3C4=CC(=O)O[C@@H](c5ccoc5)[C@]4(C)CC[C@@H]3[C@@]1(C)C2=O", "note": "(stereo not given in full)", "cell viability": 98.6}
{"compound": "CC(C)=CC1C(C(=O)O)C1(C)C", "note": "(stereo not given)", "cell viability": 85.6}
{"compound": "COc1cc2ncnc(Nc3ccc(F)c(Cl)c3)c2cc1NC(=O)/C=C/CN1CCCCC1", "cell viability": 50.9}
{"compound": "O=C(O)/C=C/C=C/c1ccccc1", "cell viability": 121}
{"compound": "CCCCC1C(=O)N(c2ccccc2)N(c2ccccc2)C1=O", "cell viability": 103}
{"compound": "COCCCOc1cc(C[C@@H](C[C@H](N)[C@@H](O)C[C@H](C(=O)NCC(C)(C)C(N)=O)C(C)C)C(C)C)ccc1OC", "cell viability": 84}
{"compound": "CCCCOC(=O)c1ccc(O)cc1", "cell viability": 84}
{"compound": "C#C[C@]1(OC(C)=O)CC[C@H]2[C@@H]3CCC4=CC(=O)CC[C@@H]4[C@H]3CC[C@@]21C", "cell viability": 93.9}
{"compound": "CCCc1nc2c(C)cc(-c3nc4ccccc4n3C)cc2n1Cc1ccc(-c2ccccc2C(=O)O)cc1", "cell viability": 89.7}
{"compound": "Cc1ccc(C(=O)N(CCCN)[C@@H](c2nc3cc(Cl)ccc3c(=O)n2Cc2ccccc2)C(C)C)cc1", "cell viability": 15.3}
{"compound": "COc1ccc(-c2cc(=O)c3c(O)c(OC)c(OC)c(OC)c3o2)cc1OC", "cell viability": 80.2}
{"compound": "N=C(N)N1CCc2ccccc2C1", "cell viability": 97.4}
{"compound": "CC(=O)/N=c1/sc(S(N)(=O)=O)nn1C", "cell viability": 112}
{"compound": "CC1=CC(=O)c2ccccc2C1=O", "cell viability": 98.7}
{"compound": "C[C@@H](Oc1cc(-c2cnn(C3CCNCC3)c2)cnc1N)c1c(Cl)ccc(F)c1Cl", "cell viability": 21.4}
{"compound": "CC(C)=CCC/C(C)=C\\CO", "cell viability": 117}
{"compound": "COCCCOc1ccnc(C[S+]([O-])c2nc3ccccc3[nH]2)c1C", "note": "(stereo not given)", "cell viability": 84.9}
{"compound": "Cc1ccc(C(=O)C(C)CN2CCCCC2)cc1", "note": "(stereo not given)", "cell viability": 101}
{"compound": "CNCC[C@@H](Oc1ccccc1C)c1ccccc1", "cell viability": 105}
{"compound": "O=C(CCCCC(=O)Nc1c(I)cc(I)c(C(=O)O)c1I)Nc1c(I)cc(I)c(C(=O)O)c1I", "cell viability": 95.1}
{"compound": "N[C@@H](CC(=O)N1CCn2c(nnc2C(F)(F)F)C1)Cc1cc(F)c(F)cc1F", "cell viability": 94.7}
{"compound": "COc1cc2c(cc1OC)Cc1cc(OC)c(OC)cc1Cc1cc(OC)c(OC)cc1C2", "cell viability": 113}
{"compound": "C[C@@H]1O[C@@H](O[C@H]2[C@H](Oc3cc(O)c4c(c3)O[C@H](c3ccc(O)cc3)CC4=O)O[C@H](CO)[C@@H](O)[C@@H]2O)[C@H](O)[C@H](O)[C@H]1O", "cell viability": 97.8}
{"compound": "CC(=O)OCC(=O)[C@@]12OC3(CCCC3)O[C@@H]1C[C@H]1[C@@H]3CCC4=CC(=O)C=C[C@]4(C)[C@@]3(F)[C@@H](O)C[C@@]12C", "cell viability": 75.1}
{"compound": "CCCC(=O)Nc1ccc(OCC(O)CNC(C)C)c(C(C)=O)c1", "note": "(stereo not given)", "cell viability": 98.8}
{"compound": "C[C@@H]1O[C@@H](OC[C@H]2O[C@@H](Oc3c(-c4ccc(O)c(O)c4)oc4cc(O)cc(O)c4c3=O)[C@H](O)[C@@H](O)[C@@H]2O)[C@H](O)[C@H](O)[C@H]1O", "note": "[RUTOSIDE  (rutin)]", "cell viability": 99}
